{"source": "PubChem BioAssay AID1224828 | NIAID | 2016", "screen": "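Knock-downs that increase or decrease LPS-induced p65 nuclear translocation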 (primary screen)", "system": "mouse RAW264.7 G9 macrophage reporter cells (GFP-p65, Tnf promoter-mCherry)", "reagents": "siRNA pool against mouse genes, 100 nM", "duration": "2 days siRNA transfection, then 40 min LPS before fixation", "challenge": "LPS (Salmonella minnesota R595) at 10 ng/ml", "detection": "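Imaged p65 nuclear translocation ratio, normalised to the plate median, converted to robust z-scores and averaged across two replicates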", "reading the numbers": "p65 translocation robust z-score: higher = more nuclear NF-kappaB p65 after LPS than the plate median; nuclear/cytoplasmic p65 ratio: higher = more nuclear NF-kappaB p65", "rule for the call": "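Called active when z exceeds 3.3 or falls under -1.56 (median of Tlr4 controls), giving activity score of at least 50; no calls for control wells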", "calls": "active = hit (p65 shift raised or lowered); inactive = no clear change", "note": "Shown is an unselected part of about 17,000 deposited reagents. 762 of them (4.5%) were called active. 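Active calls include both raised and lowered p65 entry, mostly lowered; wells with fewer than 50 cells lack a z-score.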 Raw values are not corrected between plates. Entries without a mark were called inactive."}
{"target gene":"Exosc5 (GeneID 27998)","nuclear/cytoplasmic p65 ratio, rep 1":1.32,"nuclear/cytoplasmic p65 ratio, rep 2":1.18,"low cell count flag":"fewer than 50 cells per well; well left out of scoring"}
{"target gene":"Rchy1 (GeneID 68098)","p65 translocation robust z-score":-0.22,"nuclear/cytoplasmic p65 ratio, rep 1":1.36,"nuclear/cytoplasmic p65 ratio, rep 2":1.22,"low cell count flag":"enough cells to score"}
{"target gene":"Fhit (GeneID 14198)","p65 translocation robust z-score":-1.12,"nuclear/cytoplasmic p65 ratio, rep 1":1.27,"nuclear/cytoplasmic p65 ratio, rep 2":1.24,"low cell count flag":"enough cells to score"}
{"target gene":"Kars1 (GeneID 85305)","p65 translocation robust z-score":1.36,"nuclear/cytoplasmic p65 ratio, rep 1":1.85,"nuclear/cytoplasmic p65 ratio, rep 2":1.52,"low cell count flag":"enough cells to score"}
{"target gene":"Chmp1a (GeneID 234852)","nuclear/cytoplasmic p65 ratio, rep 1":1.39,"nuclear/cytoplasmic p65 ratio, rep 2":0,"low cell count flag":"fewer than 50 cells per well; well left out of scoring"}
{"target gene":"Polr1g (GeneID 70333)","p65 translocation robust z-score":-0.02,"nuclear/cytoplasmic p65 ratio, rep 1":1.4,"nuclear/cytoplasmic p65 ratio, rep 2":1.59,"low cell count flag":"enough cells to score"}
{"target gene":"Lilra6 (GeneID 18726)","p65 translocation robust z-score":-1,"nuclear/cytoplasmic p65 ratio, rep 1":1.28,"nuclear/cytoplasmic p65 ratio, rep 2":1.08,"low cell count flag":"enough cells to score"}
{"target gene":"Dag1 (GeneID 13138)","p65 translocation robust z-score":0.3,"nuclear/cytoplasmic p65 ratio, rep 1":1.54,"nuclear/cytoplasmic p65 ratio, rep 2":1.38,"low cell count flag":"enough cells to score"}
{"target gene":"Swi5 (GeneID 72931)","p65 translocation robust z-score":1.05,"nuclear/cytoplasmic p65 ratio, rep 1":1.35,"nuclear/cytoplasmic p65 ratio, rep 2":1.38,"low cell count flag":"enough cells to score"}
{"target gene":"Tenm3 (GeneID 23965)","p65 translocation robust z-score":0.18,"nuclear/cytoplasmic p65 ratio, rep 1":1.39,"nuclear/cytoplasmic p65 ratio, rep 2":1.51,"low cell count flag":"enough cells to score"}
{"target gene":"Fth1 (GeneID 14319)","p65 translocation robust z-score":-0.8,"nuclear/cytoplasmic p65 ratio, rep 1":1.36,"nuclear/cytoplasmic p65 ratio, rep 2":1.24,"low cell count flag":"enough cells to score"}
{"target gene":"Or5l14 (GeneID 258846)","p65 translocation robust z-score":0.37,"nuclear/cytoplasmic p65 ratio, rep 1":1.69,"nuclear/cytoplasmic p65 ratio, rep 2":1.66,"low cell count flag":"enough cells to score"}
{"target gene":"Cdkn2a (GeneID 12578)","p65 translocation robust z-score":0.53,"nuclear/cytoplasmic p65 ratio, rep 1":1.66,"nuclear/cytoplasmic p65 ratio, rep 2":1.88,"low cell count flag":"enough cells to score"}
{"target gene":"Afap1l1 (GeneID 106877)","p65 translocation robust z-score":-0.88,"nuclear/cytoplasmic p65 ratio, rep 1":1.41,"nuclear/cytoplasmic p65 ratio, rep 2":1.62,"low cell count flag":"enough cells to score"}
{"target gene":"Or52ae9 (GeneID 258818)","p65 translocation robust z-score":-0.32,"nuclear/cytoplasmic p65 ratio, rep 1":1.43,"nuclear/cytoplasmic p65 ratio, rep 2":1.21,"low cell count flag":"enough cells to score"}
{"target gene":"Tmsb15l (GeneID 399591)","p65 translocation robust z-score":0.37,"nuclear/cytoplasmic p65 ratio, rep 1":1.29,"nuclear/cytoplasmic p65 ratio, rep 2":1.36,"low cell count flag":"enough cells to score"}
{"target gene":"Nenf (GeneID 66208)","p65 translocation robust z-score":-1.45,"nuclear/cytoplasmic p65 ratio, rep 1":1.44,"nuclear/cytoplasmic p65 ratio, rep 2":1.29,"low cell count flag":"enough cells to score"}
{"target gene":"Zftraf1 (GeneID 54151)","p65 translocation robust z-score":0.73,"nuclear/cytoplasmic p65 ratio, rep 1":1.62,"nuclear/cytoplasmic p65 ratio, rep 2":1.97,"low cell count flag":"enough cells to score"}
{"target gene":"Utp3 (GeneID 65961)","p65 translocation robust z-score":-1.13,"nuclear/cytoplasmic p65 ratio, rep 1":1.42,"nuclear/cytoplasmic p65 ratio, rep 2":1.59,"low cell count flag":"enough cells to score"}
{"target gene":"Rab24 (GeneID 19336)","p65 translocation robust z-score":1.24,"nuclear/cytoplasmic p65 ratio, rep 1":1.57,"nuclear/cytoplasmic p65 ratio, rep 2":1.33,"low cell count flag":"enough cells to score"}
{"target gene":"Cntnap1 (GeneID 53321)","p65 translocation robust z-score":1.1,"nuclear/cytoplasmic p65 ratio, rep 1":1.67,"nuclear/cytoplasmic p65 ratio, rep 2":1.47,"low cell count flag":"enough cells to score"}

Already shown: entries from further up.
{"target gene":"Tmsb15l (GeneID 399591)","p65 translocation robust z-score":0.37,"nuclear/cytoplasmic p65 ratio, rep 1":1.29,"nuclear/cytoplasmic p65 ratio, rep 2":1.36,"low cell count flag":"enough cells to score"}
{"target gene":"Nenf (GeneID 66208)","p65 translocation robust z-score":-1.45,"nuclear/cytoplasmic p65 ratio, rep 1":1.44,"nuclear/cytoplasmic p65 ratio, rep 2":1.29,"low cell count flag":"enough cells to score"}
